For this test, the target named is T1, Drosophila Top3β::eGFP (wild-type Topoisomerase 3β fused to eGFP) (Drosophila melanogaster) (UniProt O96651).
T1 sequence: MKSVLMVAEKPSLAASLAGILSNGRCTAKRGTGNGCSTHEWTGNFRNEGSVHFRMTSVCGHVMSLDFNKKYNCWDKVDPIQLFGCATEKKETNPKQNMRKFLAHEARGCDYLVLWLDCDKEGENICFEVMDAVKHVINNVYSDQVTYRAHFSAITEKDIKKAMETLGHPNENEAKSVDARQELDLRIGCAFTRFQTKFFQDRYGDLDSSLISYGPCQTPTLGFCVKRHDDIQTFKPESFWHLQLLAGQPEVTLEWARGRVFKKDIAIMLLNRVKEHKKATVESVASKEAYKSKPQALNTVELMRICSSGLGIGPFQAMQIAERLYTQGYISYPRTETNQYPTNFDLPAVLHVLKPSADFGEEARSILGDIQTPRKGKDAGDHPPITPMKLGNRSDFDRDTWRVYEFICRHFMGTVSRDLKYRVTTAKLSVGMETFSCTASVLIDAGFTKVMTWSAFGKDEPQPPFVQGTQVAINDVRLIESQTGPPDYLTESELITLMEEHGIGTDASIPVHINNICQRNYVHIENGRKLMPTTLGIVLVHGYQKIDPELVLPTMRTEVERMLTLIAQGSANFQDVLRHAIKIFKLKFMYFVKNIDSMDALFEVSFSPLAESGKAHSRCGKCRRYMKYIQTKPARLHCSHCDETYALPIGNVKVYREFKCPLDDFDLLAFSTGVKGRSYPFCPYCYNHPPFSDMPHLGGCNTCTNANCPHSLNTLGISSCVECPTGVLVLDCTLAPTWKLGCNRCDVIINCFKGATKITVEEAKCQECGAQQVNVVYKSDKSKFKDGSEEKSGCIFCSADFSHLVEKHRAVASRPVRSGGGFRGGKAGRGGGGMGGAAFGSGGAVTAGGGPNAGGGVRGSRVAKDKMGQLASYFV
Briefly: affinity purification with mass spectrometry.

Sequences of proteins named here, by UniProt entry; tags and fusion partners are left off.
UniProt P21187: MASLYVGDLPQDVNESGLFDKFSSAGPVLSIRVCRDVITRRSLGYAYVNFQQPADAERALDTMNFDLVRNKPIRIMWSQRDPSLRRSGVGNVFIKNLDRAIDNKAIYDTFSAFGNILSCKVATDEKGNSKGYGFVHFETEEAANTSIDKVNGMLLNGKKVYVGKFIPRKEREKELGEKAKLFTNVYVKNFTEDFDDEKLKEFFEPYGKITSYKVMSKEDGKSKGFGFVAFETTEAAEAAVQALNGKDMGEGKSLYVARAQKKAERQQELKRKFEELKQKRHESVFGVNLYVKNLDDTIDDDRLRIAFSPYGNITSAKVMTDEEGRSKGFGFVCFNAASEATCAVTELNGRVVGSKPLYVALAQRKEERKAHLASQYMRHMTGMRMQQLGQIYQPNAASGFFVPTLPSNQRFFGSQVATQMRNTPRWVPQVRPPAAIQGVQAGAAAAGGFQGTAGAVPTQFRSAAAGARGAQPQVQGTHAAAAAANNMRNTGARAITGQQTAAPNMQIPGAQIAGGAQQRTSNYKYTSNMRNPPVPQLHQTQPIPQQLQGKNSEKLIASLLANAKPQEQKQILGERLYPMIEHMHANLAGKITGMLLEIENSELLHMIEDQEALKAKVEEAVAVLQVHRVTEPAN

Results are given in words; binding and its absence hold for the method and conditions named. Binding seen in cells or lysates may run through a third protein. These calls come from enrichment with a bait or labelling near it, and not all partners need be listed. Tags and fused reporters may be left off the sequences shown.

Consider pAbp (from UniProt P21187 1-634), for which the binding entry is “binds”.

B1: Me31B (protein, UniProt P23128 1-459)
chain: MMTEKLNSGHTNLTSKGIINDLQIAGNTSDDMGWKSKLKLPPKDNRFKTTDVTDTRGNEFEEFCLKRELLMGIFEKGWERPSPIQEAAIPIALSGKDVLARAKNGTGKTGAYCIPVLEQIDPTKDYIQALVMVPTRELALQTSQICIELAKHLDIRVMVTTGGTILKDDILRIYQKVQLIIATPGRILDLMDKKVADMSHCRILVLDEADKLLSLDFQGMLDHVILKLPKDPQILLFSATFPLTVKNFMEKHLREPYEINLMEELTLKGVTQYYAFVQERQKVHCLNTLFSKLQINQSIIFCNSTQRVELLAKKITELGYCCYYIHAKMAQAHRNRVFHDFRQGLCRNLVCSDLFTRGIDVQAVNVVINFDFPRMAETYLHRIGRSGRFGHLGIAINLITYEDRFDLHRIEKELGTEIKPIPKVIDPALYVANVGASVGDTCNNSDLNNSANEEGNVSK
As for B1, the binding result is “binds”.

B2: eIF4E1 (protein, UniProt P48598 1-259)
chain: MQSDFHRMKNFANPKSMFKTSAPSTEQGRPEPPTSAAAPAEAKDVKPKEDPQETGEPAGNTATTTAPAGDDAVRTEHLYKHPLMNVWTLWYLENDRSKSWEDMQNEITSFDTVEDFWSLYNHIKPPSEIKLGSDYSLFKKNIRPMWEDAANKQGGRWVITLNKSSKTDLDNLWLDVLLCLIGEAFDHSDQICGAVINIRGKSNKISIWTADGNNEEAALEIGHKLRDALRLGRNNSLQYQLHKDTMVKQGSNVKSIYTL
Consider B2, for which the binding entry was “binds”.

B3: Cup (protein, UniProt Q9VMA3 1-1117)
chain: MQMAEAEQENGAGALKIATNAGATDRPAHQQLPLPVEDQQDEVLTPAEKGKFEYPPPPPPPTPVQAPLATKATALNASQEHDDDEANSEKWEDPCAPPPPPPLPTSAFLATGLGYLKLPAFKLKDALEKAITKLEANKRTLKASPESSRSIKNKNVVALEMLPRRSNPETIGDGSMLASTSTAVMLQTKKPAVIVEMERRCKIINLLAKQNQILESISGEAIPMHGPSKHLHEDEGLTLQVLSARASTPYTQPSSMLSCTAVSCDLEHDSPRKQVASKEAVPEQQSSQVQQKRPPSTGIHKPGSLRAPKAVRPTTAPVVSSKPVKSYTRSRLMDIRNGMFNALMHRSKESFVMPRIATCDDIELEGRLRRMNIWRTSDGTRFRTRSTTANLNMNNNNNNECMPAFFKNKNKPNLISDESIIQSQPPQPQTEFQDPAIVNQRRIGSGRLNHSKWGYNDEDYHSYHNGKSQHMEEVNSKNSKNMTVLQFFDNGEISSQPQRRPNTPVMGMSINRSENDTLHSNESSEDLSRANENYVKRVMSGFLVVSKPKSRDVEDRHHRRYRNQNEEPEWFSCGPTSRLDTIELCGFDEDEEKMLKEGNKNHGLGETERETSKQKMDHKYKWTHAEPMGRSKYMPKHDTNNNHNVENMNNVMATEHQQQKEEKRPGSGRSFQFDKFNQSQQNYESSSYVNHQQPPQTQPQQMQQQSNTNTNNSKFMSFFANEGNSSSSSLNEFFKQAINQGHGNNPEQPKSLGHIGQMPSVDQLEAKWRRNSLNNVGETANKQTDNFQKLIGSLSSAKPQSQAVGYDAISNFIMQQQQYQQQQQKQHLIIQQQQQHTAFLASLQLKAILGRADTQLLLLRLTKGEISKHGLLVQLANPRLTDMDREAITAVLQFTNTQQQQQQHKQQLDMLSSTVIASQLQNLHNLAIVQQTLAARQQPQHNPQTQAPHQLSQEDLQAHANVIMRNAVMKRKIEEQTSKLINGGAKHQAQQQYLNRGQQRQARPDANSNALLHALISGGGNNHASGYPMNGQPQKHHSNLRFGDNQNFQSFESNQPHFATQYKQQYQQSQQQHPHQQPQQLNSLHQNNAGAVNSFNKAQMQAQSAISMLPNSGDEFH
For the molecule B3, the binding result was “binds”.

These data come from publication doi:10.1101/2023.05.25.542246.
